Data published in patent publication US20220380319A1 (Bial - R&D Investments, S.A., priority 2019, published 2022).
The structures given here were assigned with low confidence; some may be wrong.

Sequences of proteins named here, by UniProt entry; tags and fusion partners are left off. Residues count along the entry.
UniProt Q13510, 22-395 limits assumed: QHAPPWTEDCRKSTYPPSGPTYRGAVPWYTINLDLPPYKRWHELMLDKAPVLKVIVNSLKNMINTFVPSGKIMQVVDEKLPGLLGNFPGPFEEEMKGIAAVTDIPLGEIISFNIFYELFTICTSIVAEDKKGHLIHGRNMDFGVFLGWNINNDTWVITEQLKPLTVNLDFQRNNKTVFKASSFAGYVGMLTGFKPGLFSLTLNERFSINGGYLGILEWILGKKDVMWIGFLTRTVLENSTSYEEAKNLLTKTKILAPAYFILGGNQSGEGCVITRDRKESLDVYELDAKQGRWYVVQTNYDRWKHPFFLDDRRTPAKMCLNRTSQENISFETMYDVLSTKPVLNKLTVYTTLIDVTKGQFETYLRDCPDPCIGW

Target: acid ceramidase (Homo sapiens, UniProt Q13510)
Experiment: Acid ceramidase inhibition, biochemical fluorescent assay with cell lysates overexpressing acid ceramidase, substrate Rbm14-12
Settings: read-out: IC50 hACR, substrate Rbm14-12 6.3 μM, pH 4.5

Compound	IC50 [nM]
CN1CC2CCC1CN2c1cccc2c1ncn2C(=O)NCCOc1ccccc1 (stereo not drawn)	< 200
N#CCCN1CCN(c2cccc3c2ncn3C(=O)NCCOc2ccccc2)CC1	< 200
COc1nc2cc(N3CCOCC3)ncc2n1C(=O)NCCCc1ccccc1	< 200
